Results: US20140186271A1, “REDUCING DENTAL CARIES” (UNIVERSITY OF ROCHESTER, priority 2011, published 2014)
At least one compound was matched to its structure with a doubt left.

Key:
[1] = test system: Streptococcus mutans strain UA159 biofilm; experiment: biofilm / extracellular polysaccharide (EPS) production, crystal violet-dye binding assay; format: cell-based; settings: biofilm grown 24 hours in TY with 1% sucrose or glucose, simvastatin present, FIG. 2
[2] = test system: Streptococcus mutans UA159; experiment: growth of S. mutans in planktonic culture (optical density at 600 nm, BHI medium); format: cell-based
Description: Bacterial Strain. The strain of Streptococcus mutans used in these experiments is referred to as UA159, the genomic type strain of these organisms (Murchison et al., Infect. Immun. 54(2):273-82 (1986); Ajdic et al., Proc. Natl. Acad. Sci. USA 99(22):14434-9 (2002)). Growth experiments. Two types of growth experiments were conducted: growth of the organism in planktonic culture and growth of the organism in a mono-species biofilm culture. In the planktonic culture experiments, the effects of simvastatin concentration on the growth ability of Streptococcus mutans UA159 was determined. In the second set of experiments, the effects of simvastatin concentration on the ability of S. mutans to produce extracellular polysaccharides (EPS), which is highly related to its ability to grow and survive on the surfaces of teeth (Yamashita et al., Infect. Immun 61(9):3811-7 (1993)), was determined. The planktonic experiments were conducted by growing S. mutans in Brain Heart Infusion medium (BHI) supplemented with specific concentrations of simvastatin dissolved in 1% ethanol/99% water. Simvastatin was obtained from Sigma Chemical Co. (St. Louis, Mo.). Growth was monitored as increasing optical density at 600 nm, using a BioScreen C automated-recording instrument, set at 37° C. and with shaking set at 10 seconds, every 15 minutes, to ensure suspension of the culture (Growth Curves USA, N.J.). […] The results from the measurements of S. mutans growth in the presence of various concentrations of simvastatin are shown in FIG. 1.

CCC(C)(C)C(=O)O[C@H]1C[C@@H](C)C=C2C=C[C@H](C)[C@H](CC[C@@H]3C[C@@H](O)CC(=O)O3)[C@H]21 [simvastatin]
production of EPS (extracellular polysaccharide) [1]: reduced
survival of the bacterium on microbiological plating ([2]; cultures incubated with 0 or 128 μg/ml simvastatin): essentially identical
growth of S. mutans strain UA159 in planktonic culture ([2]; increasing concentrations of simvastatin, rich medium (BHI), FIG. 1): reduced the growth
mode of action (bacteriostatic vs killing) ([2]; microbiological plating after incubation with up to 128 μg/ml): bacteriostatic
